The target in this experiment is T1, human M1 mAChR (Homo sapiens, UniProt P11229).
T1 sequence (P11229 1-460): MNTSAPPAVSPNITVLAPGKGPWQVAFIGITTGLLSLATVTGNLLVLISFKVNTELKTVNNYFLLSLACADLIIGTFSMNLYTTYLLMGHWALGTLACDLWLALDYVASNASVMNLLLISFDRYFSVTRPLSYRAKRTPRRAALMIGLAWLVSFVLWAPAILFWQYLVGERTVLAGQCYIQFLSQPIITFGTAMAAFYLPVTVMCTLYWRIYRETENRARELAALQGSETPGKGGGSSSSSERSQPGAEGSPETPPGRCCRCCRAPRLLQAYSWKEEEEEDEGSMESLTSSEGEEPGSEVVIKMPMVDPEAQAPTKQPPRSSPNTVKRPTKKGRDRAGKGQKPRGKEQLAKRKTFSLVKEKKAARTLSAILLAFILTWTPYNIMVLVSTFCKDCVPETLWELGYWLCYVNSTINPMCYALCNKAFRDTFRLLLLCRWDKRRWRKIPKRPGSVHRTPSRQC
Nature of the experiment: [3H]-NMS binding interaction studies with BQCA. The conditions noted are these: BQCA potentiation of ACh-mediated displacement of [^3H]-NMS. Further details: expressed in transfected cells; host or cells: CHO Flp-In. As to the method:
Prior to the experiment, cells were washed with 100 μl phosphate-buffered saline. […] Binding was terminated by rapid aspiration followed by two washes with 200 μl ice-cold 0.9% NaCl. Bound radioactivity was determined by liquid scintillation (Ultima Gold; PerkinElmer, Boston, MA) counting. Nonspecific binding was determined in the presence of 10 μM atropine.

Experimental findings from article PMC5963591, “Bitopic Binding Mode of an M1 Muscarinic Acetylcholine Receptor Agonist Associated with Adverse Clinical Trial Outcomes” (Molecular Pharmacology, 2018) are described below.

For `COc1ccc(Cn2cc(C(=O)O)c(=O)c3ccccc32)cc1` [BQCA, benzyl quinolone carboxylic acid, reference compound], the “positive cooperativity for ACh binding” value is on record as “approximately 35 fold”.
